Data as given in PubChem BioAssay AID1259254 (NCATS, 2017)
Here is one part, drawn at random, of about 59,000 reagents tested. Of all reagents, about 1,550 (2.6%) were called active. 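G2 share is only a proxy for re-replication; each gene was hit by three separate siRNAs, and active genes were retested.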 Entries without a mark were called inactive. The numbers tell different reagents against one gene apart. Further read-outs or replicates are left out here. No sequences are given here. Not given: the amount of reagent.

- Assay: 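Genome-wide screen for genes that prevent DNA re-replication in cancer cells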 (primary screen)
- Cell system: human HCT116 colorectal cancer cells
- Knock-down reagent: single siRNA against human genes
- Duration: 3 days
- Detection: 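Nuclei stained with Hoechst and imaged; cell-cycle phase assigned by DNA content; G2 share scaled per plate, non-targeting siRNA 0%, GMNN siRNA 100%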
- Scale: G2 robust z-score: higher = more G2 cells, more excess DNA replication
- Hit rule: 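Active siRNAs have a G2 robust z of 5 or more median absolute deviations over the median, which in these data means about 38% or higher of GMNN control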

G2 robust z-score, by target gene and reagent
LBHD1 (LBH domain containing 1): #1 3.36; #2 -0.334; #3 0.115
TENM1 (teneurin transmembrane protein 1): #1 0.139; #2 -0.511; #3 0.167
STARD13 (StAR related lipid transfer domain containing 13): #1 0.0101; #2 -0.498; #3 1.92
SFTA2 (surfactant associated 2): #1 -0.744; #2 -0.0193; #3 0.419
STYXL2 (serine/threonine/tyrosine interacting like 2): #1 -1; #2 2.34; #3 -0.0152
IGF2 (insulin like growth factor 2): #1 -1.22; #2 0.437; #3 -0.188
MIR3171HG (MIR3171 host gene): #1 0.628; #2 -0.302; #3 0.447
MAP3K13 (mitogen-activated protein kinase kinase kinase 13): #1 -0.644; #2 0.892; #3 0.147
HTR1A (5-hydroxytryptamine receptor 1A): #1 -0.701; #2 -0.5; #3 0.429
HSD11B1L (hydroxysteroid 11-beta dehydrogenase 1 like): #1 0.0506; #2 0.872; #3 1.17
POLN (DNA polymerase nu): #1 6.57 (active); #2 0.362; #3 1.71
B4GALT6 (beta-1,4-galactosyltransferase 6): #1 -0.176; #2 -0.22; #3 3.9
UNC5A (unc-5 netrin receptor A): #1 0.584; #2 0.39; #3 0.061
LINC00520 (long independently transcribed non-coding RNA 520): #1 1.71; #2 -0.356; #3 -0.264

Look-ups from above.
For “G2 robust z-score”, MIR3171HG (MIR3171 host gene) #1 shows 0.628
For “G2 robust z-score”, TENM1 (teneurin transmembrane protein 1) #1 reads 0.139
STARD13 (StAR related lipid transfer domain containing 13) #2, G2 robust z-score → -0.498
Result of POLN (DNA polymerase nu) #1 under “G2 robust z-score”: 6.57 (active)
LBHD1 (LBH domain containing 1) #2, G2 robust z-score = -0.334
MIR3171HG (MIR3171 host gene) #3, G2 robust z-score = 0.447

Next reagents:
G2 robust z-score, by target gene and reagent
SF3A1 (splicing factor 3a subunit 1): #1 2.71; #2 2.77; #3 5.51 (active)
DLGAP5 (DLG associated protein 5): #1 -0.488; #2 -0.122; #3 2.03
PARP12 (poly(ADP-ribose) polymerase family member 12): #1 -0.734; #2 -0.0558; #3 -1.1
CHGB (chromogranin B): #1 2.44; #2 -0.289; #3 1.05
TMEM167B (transmembrane protein 167B): #1 3.7; #2 0.396; #3 1.51
ACD: #1 1.49; #2 0.573; #3 2.59
ZNF700 (zinc finger protein 700): #1 -0.441; #2 2.46; #3 0.958
C3orf38 (chromosome 3 open reading frame 38): #1 -0.812; #2 -0.156; #3 1.31
IFT57 (intraflagellar transport 57): #1 -0.0935; #2 7.33 (active); #3 3.27
PIGA (phosphatidylinositol glycan anchor biosynthesis class A): #1 -0.864; #2 -0.277; #3 -0.95
PRICKLE1 (prickle planar cell polarity protein 1): #1 -0.853; #2 -1.28; #3 -0.747
GPR17 (G protein-coupled receptor 17): #1 -0.105; #2 -1.07; #3 1.68
UACA: #1 -0.834; #2 -0.823; #3 -0.544
LOC646804 (alkylated DNA repair protein alkB homolog 8-like): #1 -0.774; #2 -0.303; #3 2.27
CFAP410 (cilia and flagella associated protein 410): #1 0.492; #2 0.873; #3 1.59
